One compound from US20230126310A1 (priority 2020, published 2023) can be followed below.

The test relates to SARS-CoV-2. Put plainly: microbe, parasite or virus in culture. To be noted: Severe acute respiratory syndrome coronavirus 2, Caco-2, 48 h, read-out: % Inh. (% Inhibition of SARS-CoV-2).

With `O=C(CCCN1CCC2(CC1)C(=O)NCN2c1ccccc1)c1ccc(F)cc1` [spiperone], the inhibition at 10 µM turned out to be 56.9%.
